At least one compound was matched to its structure with a doubt left.
System: DRG neurons
Experiment: Internalization of fluorescein-labeled SLPI/peptides by DRG neurons at 37° C. (fluorescence microscopy)
Format: cell-based
Protocol: To visualize internalization of SLPI in living cells, SLPI was labeled with fluorescein using a Fluorescein-EX protein labeling kit (Molecular Probes). The labeling reaction was performed following the protocol provided by the manufacturer. P5 DRG neurons were isolated (Mukhopadhyay et al., 1994; DeBellard et al., 1996; Cai et al., 1999; supra) and treated with either 10 μg/ml of fluorescein-labeled SLPI (fSLPI) or unconjugated fluorescein in SATO culture medium. Cells were then plated in 8 well chamber slides coated with 100 μg/ml poly-D-lysine (PDL) and incubated for 1 hour at 37° C. Cells were then fixed with 4% paraformaldehyde and immunostained using a monoclonal antibody to the neuronal marker βIII tubulin (1:1000 dilution, Covance). After an overnight incubation at 4° C., the cells were rinse and incubated successively with biotinylated anti-mouse antibody (1:500 dilution, Amersham) and Texas Red-conjugated streptavidin (1:300 dilution, Amersham). Slides were then coverslipped and viewed using an upright fluorescence microscope.
To further characterize SLPI internalization into living cells, P5 DRG neurons in SATO culture medium were treated with unconjugated fluorescein, 1 μg/ml fSLPI, or 10 μg/ml fSLPI and plated onto PDL-coated slides for 5 minutes at 37° C. Cells were then fixed and immunostained for βIII tubulin as described.
The transduction characteristics of a SLPI-derived PTD comprising amino acids 11-25 of human SLPI (SLPI11-25) were compared to those of the SLPI protein. SLPI11-25 and penetratin were custom synthesized and labeled with fluorescein at the C-terminus by Invitrogen. P6 DRG neurons were isolated and treated with unconjugated fluorescein, 5 μg/ml fSLPI, 5 μg/ml SLPI11-25, or 5 μg/ml penetratin in SATO culture medium. Cells were plated onto PDL-coated slides and incubated for 15 minutes at 37° C. Cells were then fixed and immunostained for βIII tubulin as described.

O=C1OC2(c3ccc(O)cc3Oc3cc(O)ccc32)c2ccccc21 [fluorescein, reference compound]
not internalized: internalization into nuclei (P5 DRG neurons, 1 μg/ml or 10 μg/ml, 5 minutes) | internalization / presence in nuclei of neurons (P5 DRG neurons, 10 μg/ml, 1 hour) | internalization / presence in nuclei of DRG neurons (P6 DRG neurons, 5 μg/ml, 15 minutes)
